From patent US20200369755A1
No constants are given. Whether binding was seen depends on the method and setting. Some entries that bind do so weakly or less than the wild type.

Amino acid sequences for entries named in this document (tags omitted). A change or cut given only in a name is not applied to a line headed by its entry. Chains listed by the source or under a name are the forms on record and can include a tag or linker.
4R tau fibrils (P10636, form named): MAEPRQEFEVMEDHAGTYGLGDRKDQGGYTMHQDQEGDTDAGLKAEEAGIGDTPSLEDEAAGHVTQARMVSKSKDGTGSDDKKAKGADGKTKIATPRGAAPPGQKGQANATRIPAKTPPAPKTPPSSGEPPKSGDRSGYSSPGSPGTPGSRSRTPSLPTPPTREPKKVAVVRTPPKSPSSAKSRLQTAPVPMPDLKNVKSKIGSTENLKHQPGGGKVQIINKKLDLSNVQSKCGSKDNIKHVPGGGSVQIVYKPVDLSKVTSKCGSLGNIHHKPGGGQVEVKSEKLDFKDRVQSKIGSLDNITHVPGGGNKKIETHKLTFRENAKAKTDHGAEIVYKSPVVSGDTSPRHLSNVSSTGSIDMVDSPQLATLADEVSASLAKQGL

Experiments:
[1] = target: mixed fibrils of 3-repeat and 4-repeat tau (UniProt P10636); test: ELISA on plate-coated preformed fibrils
4R tau fibrils [2] = target: 4R tau fibrils (UniProt P10636); test: ELISA on plate-coated preformed fibrils
[3] = target: mixed fibrils of 3-repeat and 4-repeat tau (UniProt P10636); test: ELISA on fibrils
4R tau fibrils [4] = target: 4R tau fibrils (UniProt P10636); test: ELISA on fibrils
[5] = target: mixed fibrils of 3-repeat and 4-repeat tau (UniProt P10636); test: ELISA on plates coated with preformed mixed 3R/4R tau fibrils, biotinylated antibody, streptavidin-HRP, OPD, A490 [binding to mixed fibrils]

binding [1]: binds
binding (4R tau fibrils [2]): binds
binding [3]: binds
binding (4R tau fibrils [4]): binds
binding [5]: binds
B1: hu3D6VHv1bA11/L2-DIM4 (antibody, V domains shown)
VH: EVQLVQSGAEVVKPGATVKISCKASGFNIKDYYLHWVRQRPGQGLEWIGWIDPENGDTVYDPKFQGRATITADTSTDTAYLQLGSLTSEDTAVYFCSTLDFWGQGTLVTVSS
VL: DVVMTQSPLSLPVTLGQPASISCKSSQSLLDSDGKTYLNWLQQRPGQSPRRLIYLVGKRDSGVPDRFSGSGSGTDFTLKISRVEAEDVGVYYCWQGTHFPYTFGGGTKLEIK
